Measured values published in PubChem BioAssay AID651793 (National Center for Advancing Translational Sciences (NCATS), 2012).
The inconclusive results got no clear call from the source; some entries with a clear call stand among them for comparison. Where the call is inconclusive, the potency comes from a doubtful curve fit. Activity calls are given as the source filed them. The call rests on the fitted dose curve; in most records, active means well fitted inhibition curve with a large enough effect; inconclusive means small, poorly fitted or top-dose-only effect; inactive means flat fitted curve, though single readings scatter.

Experiment: InCell qHTS Assay for Inhibitors of the mTORC1 Signaling Pathway in WT MEF Cells: Hit Validation
Conditions: WT MEF phospho-rpS6 immunofluorescence, Acumen, 24 h; series mostly up to 38.3 µM
Source text: The mammalian target of rapamycin (mTOR) is an intracellular serine/threonine kinase Aberrant regulation of mTOR signaling plays a causative role in a number of human diseases, including cancer, benign tumors such as lymphangioleiomyomatosis (LAM) and Tuberous Sclerosis Complex (TSC), and metabolic diseases such as diabetes and obesity. This project aims to identify inhibitors of ribosomal protein S6 (rpS6) phosphorylation. The phosphorylation of rpS6 is a key event downstream of mTOR activation. The assay uses a phospho-specific antibody of phospho-rpS6 to detect inhibitors of mTOR activation. Mutations in the Tsc1 and Tsc2 genes are the underlying genetic lesions responsible for TSC, causing constitutive activation of the mTORC1 pathway and leading to profound effects on cell metabolism. Aberrant metabolism in cancer has recently received significant attention as a target to develop therapeutic agents in the treatment of cancer.1 As Tsc2-/- cells have lost the ability to respond to energy and growth factor deprivation, these cells are unable to properly down regulate cellular biosynthetic processes in response to metabolic stress, and are thus extremely sensitive to glucose deprivation-induced death.2 A central goal of this project is to explore the unique cell survival and metabolic properties of cells with Tsc1 or Tsc2 by screening for compounds that selectively target the Tsc2-/- MEFs by screening both Tsc2-/- and WT MEF cell lines. We hope to better understand these aspects of TSC physiology in order to exploit them for therapeutic benefit. NIH Molecular Libraries Probe Production Centers Network [MLPCN] NIH Chemical Genomics Center [NCGC] MLPCN Grant: NS059428 Assay Submitter (PI): Blenis, John; Harvard University
For quantitative high throughput analysis of mTORC1 signaling, we developed a cell-based assay for immuno-fluorescence based detection of rpS6 phosphorylation on the Acumen Explorer that will be used a platform for the primary small molecule screen. Mouse embryonic fibroblasts (MEFs) are cultured in 1536-well plates using DMEM + 10% FBS. Twenty-four hrs after plating, test compounds (solubilized in DMSO) are delivered and incubated with the cells for 24 hrs at 37 degree Celsius. Following the incubation, media with compound is aspirated and the cells are fixed in 4% paraformaldehyde (PFA) containing PBS + 0.2% TX-100. Next, PFA is aspirated, cells are washed two times with PBS plus 0.2% TX-100 and the cells are blocked for 1 hr at room temperature (blocking buffer: LiCOR Blocking Buffer plus 0.2% TX-100). This is followed by aspiration and staining with Alexa-488 conjugated-phospho-rpS6 Ser235/236 antibody for 2 hours at room temperature (Cell Signaling Technology # 4803, 1:50 dilution in blocking buffer). Cells are washed two times with PBS plus 0.2% TX-100, and stained with 10 uM propidium iodide (PI) for 20-25 minutes for cell number measurement (1:500 dilution of Hoescht staining is also added for IN Cell imaging). The plates are scanned on the Acumen Explorer laser scanning instrument (TTP Labtech) using the 488nm laser for simultaneous excitation of the Alexa-488 and PI. The fluorescence emission from the Alexa-488 conjugated rpS6 phospho-235/236 antibody staining is selected using a […] band pass filter. Fluorescence emission from the PI stain is selected using a 575-640 nm band pass filter. The normalized phospho-S6 staining is calculated as the ratio of the integrated Alexa 488 intensity divided by the integrated PI intensity for the single concentration rapamycin control (7.5 nM) and DMSO columns. […] Inhibition of the pathway is defined based on the normalized phospho-S6 intensity in rapamycin treated cells. […]

| SMILES | Potency |
| --- | --- |
| CCOc1ccc(/C=C/C(=O)Nc2ccc3nc(N(CC)CC)cc(C)c3c2)cc1OC | active: 10 µM |
| CCCOc1ccc(C(=O)Nc2ccc(NC(=O)c3ccccc3)c(Br)c2)cc1 | active: 10 µM |
| Cc1cc(N2CCCCC2)nc2ccc(NC(=O)/C=C/c3ccccc3OC(C)C)cc12 | inactive |
| Cc1ccc(Nc2nc(Nc3ccc(C)c(C)c3)nc(N3CCOCC3)n2)cc1C | inconclusive: 10 µM [inhibitor, partial curve] |
| CCOc1ccc(Nc2nc(Nc3ccc(OCC)cc3)nc(N3CCOCC3)n2)cc1 | inactive |
| CCCOc1ccc(C(=O)Nc2ccc(NC(=O)c3ccccc3)c(C)c2)cc1 | active: 6.34 µM |
| O=C1CC(c2ccccc2)Cc2[nH]c(=O)c(-c3nc(-c4ccc(Cl)cc4)cs3)cc21 (stereo not drawn) | inactive |
| COc1ccc(C(=O)Nc2cc(-c3nc4ccccc4s3)ccc2OC)cc1 | inconclusive: 7.11 µM [inhibitor, single point] |
| COc1ccccc1Nc1c2c(nc3ccc(NC(=O)c4ccc(N(C)C)cc4)cc13)CCCC2 | active: 5.65 µM |
| CCCCc1ccc(C(=O)Nc2ccc3nc(N4CCN(CC)CC4)cc(C)c3c2)cc1 | active: 8.95 µM |
| COc1ccc(Nc2nc(Nc3ccc(OC)cc3OC)nc(N3CCOCC3)n2)c(OC)c1 | inconclusive: 12.6 µM [inhibitor, partial curve, poor fit] |
| COc1ccc(/C=C/C(=O)Nc2ccc3nc4c(c(Nc5ccccc5OC)c3c2)CCCC4)cc1 | inconclusive: 6.34 µM [inhibitor, full curve] |
| CCc1cccc(C)c1Nc1c(-c2ccc(N(C)C)cc2)nc2ncccn12 | inconclusive: 25.2 µM [inhibitor, single point] |
| COc1ccccc1Nc1c2c(nc3ccc(NC(=O)/C=C/c4cccc(OC)c4OC)cc13)CCCC2 | inconclusive: 8.95 µM [inhibitor, full curve, poor fit] |
| COc1cc(-c2nc3cnccn3c2Nc2ccc(C(C)C)cc2)ccc1O | inconclusive: 25.2 µM [inhibitor, single point] |
| Fc1ccc(Nc2nc(Nc3ccc(F)cc3)nc(N3CCOCC3)n2)cc1 | inconclusive: 8.95 µM [inhibitor, single point] |
| CCN1CCN(c2cc(C)c3cc(NC(=O)c4cc(Cl)ccc4OC)ccc3n2)CC1 | inconclusive: 11.3 µM [inhibitor, partial curve] |
| COc1ccc(Nc2c3c(nc4ccc(NC(=O)/C=C/c5cc(OC)c(OC)c(OC)c5)cc24)CCCC3)cc1OC | inconclusive: 10 µM [inhibitor, partial curve, poor fit] |
| CCCCOc1cccc(NC(=O)c2cccc(C(=O)Nc3cccc(OCCCC)c3)c2)c1 | inconclusive: 8.95 µM [inhibitor, single point] |
| COc1ccc(C(=O)Nc2ccc3nc(N4CCCCC4)cc(C)c3c2)cc1OC | inconclusive: 28.3 µM [inhibitor, single point] |
| CCc1ccc(C2CC(=O)c3c([nH]c(C(=O)OCCOc4ccccc4)c3C)C2)cc1 (stereo not drawn) | inconclusive: 25.2 µM [inhibitor, partial curve, poor fit] |
| COc1cc(-c2nc3ncccn3c2Nc2ccc(C)cc2C)ccc1O | inactive |
| COc1ccccc1Nc1c2c(nc3ccc(NC(=O)c4cccc(OC)c4OC)cc13)CCCC2 | active: 17.9 µM |

Shown bar-delimited: part of the list above
SMILES | Potency
COc1ccccc1Nc1c2c(nc3ccc(NC(=O)/C=C/c4cccc(OC)c4OC)cc13)CCCC2 | inconclusive: 8.95 µM [inhibitor, full curve, poor fit]
CCCCOc1cccc(NC(=O)c2cccc(C(=O)Nc3cccc(OCCCC)c3)c2)c1 | inconclusive: 8.95 µM [inhibitor, single point]
